{"source": "patent US20180177872A1", "about": "“Combination of PD-1 antagonist with an EGFR inhibitor” (priority 2015, published 2018)", "origin": "cited, not measured here", "tested_on": "CT26", "conditions": "cited from earlier work", "note": "For at least one compound, name, drawing or mass did not settle the structure."}
{"smiles": "C=CC(=O)N1CCC[C@@H](n2nc(-c3ccc(Oc4ccccc4)cc3)c3c(N)ncnc32)C1", "note": "[ibrutinib]", "values": [{"measurement": "tumor bearing mice cured", "value": "no mice"}]}
